In paper PMC3513311:
These are yes or no findings as the source states them, for the method shown. In cells and extracts the contact can be indirect. These calls come from enrichment with a bait or labelling near it, and not all partners need be listed. For some assays here: A no says only that the protein was not detected with the bait. Tags and fused reporters may be left off the sequences shown.

T1: N-terminally His-tagged Cas1 (Pectobacterium atrosepticum SCRI1043) (UniProt Q6D0X0)
T1 sequence: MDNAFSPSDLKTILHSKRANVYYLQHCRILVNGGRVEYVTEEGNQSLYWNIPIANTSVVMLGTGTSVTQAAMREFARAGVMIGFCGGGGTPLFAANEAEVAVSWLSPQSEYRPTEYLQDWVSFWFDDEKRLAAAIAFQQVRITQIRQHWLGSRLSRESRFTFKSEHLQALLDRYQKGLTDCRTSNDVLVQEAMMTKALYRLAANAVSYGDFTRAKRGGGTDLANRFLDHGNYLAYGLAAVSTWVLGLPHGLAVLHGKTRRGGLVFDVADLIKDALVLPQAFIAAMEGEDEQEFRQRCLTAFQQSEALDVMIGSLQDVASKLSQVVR

B1: native (untagged) Cas3 (enzyme, UniProt Q6D0W9 1-1098)
chain: MNILLISECNKRALVETRRILDQFAERKGERSWQTAITLEGLNTLRKLLRKTARRNTAVACHWIRSTNHTELLWVVGNLRRFNAQGSVPTNTTSRDVLRTKDENPWHSAEVFSLLAAIAGLFHDVGKANALFQAGLSGTGPRSQPYRHEWVSLRLFQAFVGEQDDKAWLTTLSMITSEAEVALLATLQQDKPTFSDSPFRTLPPLAQTIAWLIVSHHRLPVFNKSTELAPNSSEPQLSFAETWLTDHLSPQWNALNHCQIGWTPHEREQNWQFPNGTPLYSAVWREKARKFAGRALKLPSFMHFSQLDQRLTVHLARLALMLADHHYSAGAATVGWQDITYPVWANTDRKTGEYKQRLDEHCVGVGQNALLLGRSLPHLRDTLPAITRHKGFRQRSTHPRFRWQDRAFDLACSIRETSKQHGFFGINMASTGRGKTFANARIMYGLSDESTGCRFSVALGLRTLTLQTGDALRQRLKLDEDDLAVLIGSQAVQDLHEMRKENQQRQQNTPQTGSESADPLFSEHQYVRYDGSLDDGRLKAWLERSPTLHQLLSAPVLITTIDHLMPATEALRGGHQIAPMLRLLTADLVLDEPDDFGLEDLPALCRLVNWAGMLGSRVLLSSATLPPALIRALFDAYLDGRTAWQQAYGTPNTPLNVCCGWFDEFDCQHEQYGDVKDFMVRHDAFVHQRLKNLTKDELPLRFATIVPVSSPSKNADDVYLAVAQAIHPRMFDLHSQHHQQHENGKTVSLGLVRMANIDPLVAVARQLLAIPSPPDTCIHYCIYHSQHPLAMRSHIEQRLDAALMRNDADALWQVEEIRQAIEKSSQRHHVFVALATSVAEVGRDHDYDWAIVEPSSMRSLIQPAGRILRHRQDKQYVPKTPNIYLLSHNIRALRGKDIAYCKPGFESQDDSLDTHDLHQLLQEKEYRHLSAAPRIVQPMSFAKPLSLVALEHAVLGKTLLGLKNKKLDDLKRPPAAFWWRAHPHWNGELQRRTPFRQSAKDEAYTLWIADDDEEPVFMVQDDGPSGWKQSDIARPVTLNMAEGVSAWIEPDYHALYQQLAEEKQWELSWVSARFGEIRLREEEDWYWHPLLGVFGALS
B2: native (untagged) Csy1 (protein, UniProt Q6D0W8 1-443)
chain: MRNGLPEFILSYINNRKQAKLDAFDKEAEKKRATLSGEALSVAELELAKARREIEQKHEVRNWLTDAASRAGQISLVTHALKFTHSDAKGSSVFNAETVEDATTLSTATLAQPAIDAVGNAAALDVAKLLQTEHDGDSLVAALQRGDNRALEALAENPEQLAQWLTGFQQVFTNRQPSSHKLAKQIYFPLANGEYHLLSPLYSSSLAHALHQRISAVRFGDEAKAIRQAQRTNQWHDQLSISYPNLAVQNMGGTKPQNISALNSSRSGRSYLLSSAPPQWNSIEKPPQQHESIFRPRGEVDYHTRATLAQMQRFLLSVKDVENNRDIRQQRLHYLDQLIDQLFFYVASVQNLPVGWSAESELKRAQQLWLDPYRAETDTVFRREREAGDWQQAVAYEFGRWLNRRLKHENLIFGEVERREWSTAALFKRRMREMESALKEELA
B3: native (untagged) Csy2 (protein, UniProt Q6D0W7 1-310)
chain: MSTLIILRRIQVENANAIAGLTYGFPAITHFLGFTHALSRKLQASHGLTLEGCGVVSHQHQLHAYGSSWERSFALTRNPLTKEAKTAAFNEEGRMHMTVSLLIRCDGQIPADTTALCEHLKQQAQCQRLAGGTVIDIERVTVQSLPVDEAETRGVMRRLLPGFVLRDRTSLLHRHFQTLQQAKPQAEMIDAWLDFAALKMQAERDPSDETVQWKYLPKPGDGGFLTPLMIGYRAISPLYAPGEVDKTRDPHTPFCFAEAAYGIGEWQGAHRISDISQILWEYDYQNGDYHCRQVADTHSVAEDTSYEFDY
B4: native (untagged) Csy3 (protein, UniProt Q6D0W6 1-337)
chain: MAKAATTLKTASVLAFERKLANSDALMYAGNWAQQDNWTAIAIQEKSVRGTISNRLKNALTSDPAKLDAEIQKANLQKVDVAALPFGADTLKIVFTLRVLGNLAQPSVCNDQDYQTALGDIITGYAQEQGFSTLAARYAENIANGRFLWRNRVGAEAIRVVVTKKGERSWEFNGEDYSLRQFSQPAGDLAALTQAIEKGLAGDASALFTVEAYVQLGNGQEVFPSQELVLDEKARNGKSKILYQVNDVAAIHSQKIGNALRTIDDWYPAADEAGPIAVEPYGSVTSRGKAYRQPREKMDFYTLLDNWVIKGDVPMPEQQHYVIATLIRGGVFGEKGE
B5: native (untagged) Cas6f (enzyme, UniProt Q6D0W5 1-184)
chain: MDHYIDIRVQPDPEFTASQLLNALFAKLHRVLGQLANGKIGISFPEVGKTLGECLRLHGTEDALSTLEKTSWLKGLRDYTQVSECKVVPNGVKFRTVRRVQLKSSAERLRRRSVSKGWLTAAEAAARIPDAVEKRSALPFVQIKSLSNGQMFFVFVEHGPLQNAPTAGRFSSYGLSTEATVPWF

Legend:
[1] = biological target: T1, N-terminally His-tagged Cas1 (Pectobacterium atrosepticum SCRI1043); assay: affinity purification with mass spectrometry; His-Cas1 and untagged Cas3 co-expressed from pJSC10 in P. atrosepticum Δcas (PCF80), with or without pJSC11 (Csy1-3, Cas6f); Ni-NTA, wash 40 mM imidazole, imidazole gradient elution; SDS-PAGE (Coomassie), confirmed by MS
[2] = biological target: T1, N-terminally His-tagged Cas1 (Pectobacterium atrosepticum SCRI1043); assay: affinity purification with mass spectrometry; N-terminally His-tagged bait (pTRB30 derivative) co-expressed with untagged Csy1-3 and Cas6f (pJSC11) in P. atrosepticum Δcas (PCF80); lysate on Ni-NTA, 50 mM NaH2PO4, 300 mM NaCl, wash 40 mM imidazole, elution 250 mM imidazole; SDS-PAGE (Coomassie) and LTQ-Orbitrap MS; compared with His-SdhE control

Row | Binder | binding [1] | binding [2]
1 | B1 | binds | –
2 | B2 | – | no binding
3 | B3 | – | no binding
4 | B4 | – | no binding
5 | B5 | – | no binding
